Laboratory results from PMC10336005, “Architectural basis for cylindrical self-assembly governing Plk4-mediated centriole duplication in human cells” (Communications Biology, 2023).
Positions count from the first letter of the chain named. Names and notes keep the numbering of the source. These are yes or no findings as the source states them, for the method shown. A result given as binding can be weak or reduced; the word gives no strength. For some of these results: In cells and extracts the contact can be indirect. Blank lines part the entries; values can stand above or below the binder they belong to.

Key:
Cep63 (220–541) (human) = assay: SAXS; solution scattering of purified complexes, concentration series extrapolated to infinite dilution; WT complex at 13 and 25 µM; ab initio DAMMIN envelopes; both purified
[1] = biological target: His-Cep63 (424–541) (human); assay: as above
[2] = biological target: His-Cep63 (440–541) (human); assay: as above
[3] = biological target: His-Cep63 (424–541) (human); assay: SEC; analytical SEC of the co-purified Cep63•Cep152 complexes; pH 7.5 (Fig. 2b); pH of the WT/∆23/2D comparison (Fig. 3a) not stated; both purified
[4] = biological target: His-Cep63 (440–541) (human); assay: AUC; sedimentation velocity of His-Cep63 (440–541)•Cep152 (1205–1272), 50,000 rpm, 20 °C, 100 mM NaCl, 20 mM Tris pH 7.5, 0.5 mM TCEP; both purified
[5] = biological target: His-Cep63 (424–541) (human); assay: AUC; sedimentation velocity of His-Cep63 (424–541)•Cep152 (1205–1272), 50,000 rpm, 4 °C, 150 mM NaCl, 20 mM Tris pH 7.5, 10 mM 2-mercaptoethanol, 0.5 mM TCEP, 5% glycerol; various loading concentrations; both purified
Cep63 (219–541) (human) = assay: SAXS; solution scattering of purified complexes, concentration series extrapolated to infinite dilution; WT complex at 13 and 25 µM; ab initio DAMMIN envelopes; both purified
[6] = biological target: His-Cep63 (424–541) (human); assay: iSCAMS (mass photometry); pH 5.5 sample diluted to 200 nM (methods: 100 nM) and left equilibrated at 4 °C; both purified
[7] = biological target: His-Cep63 (424–541) (human); assay: AUC; sedimentation velocity of His-Cep63 (424–541)•Cep152 (1205–1295) 2D, 50,000 rpm, 4 °C, 150 mM NaCl, 20 mM Tris pH 7.5, 0.5 mM TCEP, 5% glycerol; various loading concentrations; both purified

- binding [1]: binds
- binding (Cep63 (219–541) (human)): binds
- binding [6]: binds
- binding [3]: binds
B3: Cep152 (1205–1295) (domain or fragment, UniProt O94986-3 1205-1295)
chain: GALEELRGQYIKAVKKIKCDMLRYIQESKERAAEMVKAEVLRERQETARKMRKYYLICLQQILQDDGKEGAEKKIMNAASKLATMAKLLET

- binding [1]: binds
- binding [7]: binds
- binding [3]: binds
B4: Cep152 (1205–1295) I1279D L1286D (domain or fragment, UniProt O94986-3 1205-1295)
chain: B3 chain with I75D, L82D

Second part, the binder before the results:

B1: Cep152 (1140–1295) (domain or fragment, UniProt O94986-3 1140-1295)
chain: GHHAQPLALQATEAEAEENNKVVEELIEENNDMKNKLEELQTLCKTPPRSLSAGAIENACLPCSGGALEELRGQYIKAVKKIKCDMLRYIQESKERAAEMVKAEVLRERQETARKMRKYYLICLQQILQDDGKEGAEKKIMNAASKLATMAKLLET
- binding (Cep63 (220–541) (human)): binds

B2: Cep152 (1205–1272) (domain or fragment, UniProt O94986-3 1205-1272)
chain: GALEELRGQYIKAVKKIKCDMLRYIQESKERAAEMVKAEVLRERQETARKMRKYYLICLQQILQDDGK
- binding [1]: binds
- binding [2]: binds
- binding [3]: binds
- binding [4]: binds
- binding [5]: binds
